Reference: PubChem BioAssay AID328 (DTP/NCI, 2004)
The list shows only some results of the screen, not a fair sample: its compounds were picked by chemical class. Not every dose and run of a compound is shown. T/C gives the treated animals as a percentage of the vehicle group. For survival time, this PubChem deposit counts one and a half times the control or more as active, and values a quarter to a half above the control carry no call in these data; other NCI protocols may use other cut-offs. Some T/C values are marked as having no survivor count here; that says nothing about deaths at the dose. Schedules are NCI's codes, taken here to give the interval after Q, in days (D) or hours (H), and the number of doses after X. Some entries were tested several times; their values stand side by side, smallest first.

Test system: BDF1 mice, P388 leukemia ip, median survival T/C
Assay: NCI In Vivo Anticancer Drug Screen. Data for tumor model P388 Leukemia (intraperitoneal) in B6D2F1 (BDF1) mice
Settings: T/C endpoint: median survival time, higher T/C = longer survival
Experimental: The antitumor activity of compounds was measured in mice bearing transplantable tumors. Survival or tumor size were measured and the results are expressed as the measurement made in the treated group (T) divided by the measurement made in the vehicle treated control group (C). The tumor model used in this assay is P388 Leukemia (intraperitoneal) in B6D2F1 (BDF1) mice

[1] = dose: 3.0 mg/kg/injection, schedule: Q04DX003 (ip), vehicle: saline with Tween-80
[2] = dose: 4.0 mg/kg/injection, schedule: Q01DX009 (ip), vehicle: saline
[3] = dose: 6.0 mg/kg/injection, schedule: Q01DX009 (ip), vehicle: saline
[4] = dose: 9.0 mg/kg/injection, schedule: Q01DX009 (ip), vehicle: saline
[5] = dose: 25.0 mg/kg/injection, schedule: Q04DX003 (ip), vehicle: saline

For `BrCCN(CCBr)Cc1ccccc1`, the T/C (dose: 0.3 mg/kg/injection, schedule: Q01DX009 (ip), vehicle: saline with Tween-80) was 141 % of control [survivor count not shown], the T/C (dose: 0.5 mg/kg/injection, schedule: Q01DX009 (ip), vehicle: saline with Tween-80) was 137 % of control [survivor count not shown] and the T/C (dose: 0.74 mg/kg/injection, schedule: Q04DX003 (ip), vehicle: saline with Tween-80) was 122 % of control [survivor count not shown]. For the same molecule, the T/C (dose: 0.75 mg/kg/injection, schedule: Q01DX009 (ip), vehicle: Klucel (hydroxypropylcellulose) (HPC)) was 139 % of control [survivor count not shown], the T/C (dose: 0.8 mg/kg/injection, schedule: Q01DX009 (ip), vehicle: saline with Tween-80) was 158 % of control [survivor count not shown] and the T/C (dose: 1.1 mg/kg/injection, schedule: Q04DX003 (ip), vehicle: saline with Tween-80) was 131 % of control [survivor count not shown]. For the same molecule, the T/C (dose: 1.3 mg/kg/injection, schedule: Q01DX009 (ip), vehicle: saline with Tween-80) was 150 [survivor count not shown] and 158 % of control [survivor count not shown], the T/C (dose: 1.5 mg/kg/injection, schedule: Q01DX009 (ip), vehicle: Klucel (hydroxypropylcellulose) (HPC)) was 140 % of control [survivor count not shown] and the T/C (dose: 1.5 mg/kg/injection, schedule: Q04DX003 (ip), vehicle: Klucel (hydroxypropylcellulose) (HPC)) was 132 % of control [survivor count not shown]. The T/C (dose: 1.7 mg/kg/injection, schedule: Q04DX003 (ip), vehicle: saline with Tween-80) was 131 [survivor count not shown] and 145 % of control [survivor count not shown], the T/C (dose: 2.0 mg/kg/injection, schedule: Q01DX009 (ip), vehicle: saline with Tween-80) was 170 % of control [survivor count not shown] and the T/C (dose: 2.6 mg/kg/injection, schedule: Q04DX003 (ip), vehicle: saline with Tween-80) was 127 [survivor count not shown], 150 [survivor count not shown], 175 % of control [survivor count not shown]. For the same molecule, the T/C (dose: 3.0 mg/kg/injection, schedule: Q01DX009 (ip), vehicle: Klucel (hydroxypropylcellulose) (HPC)) was 150 % of control [survivor count not shown], the T/C (dose: 3.0 mg/kg/injection, schedule: Q01DX009 (ip), vehicle: saline with Tween-80) was 169 [survivor count not shown], 179 [survivor count not shown], 204 % of control [survivor count not shown] and the T/C (dose: 3.0 mg/kg/injection, schedule: Q04DX003 (ip), vehicle: Klucel (hydroxypropylcellulose) (HPC)) was 148 % of control [survivor count not shown]. For the same molecule, the T/C [1] was 238 % of control [survivor count not shown], the T/C (dose: 4.0 mg/kg/injection, schedule: Q04DX003 (ip), vehicle: saline with Tween-80) was 159 [survivor count not shown] and 180 % of control [survivor count not shown] and the T/C (dose: 4.5 mg/kg/injection, schedule: Q01DX009 (ip), vehicle: saline with Tween-80) was 191 % of control [survivor count not shown]. The T/C (dose: 6.0 mg/kg/injection, schedule: Q01DX009 (ip), vehicle: saline with Tween-80) was 121 % of control [survivor count not shown], the T/C (dose: 6.0 mg/kg/injection, schedule: Q04DX003 (ip), vehicle: Klucel (hydroxypropylcellulose) (HPC)) was 160 % of control [survivor count not shown] and the T/C (dose: 6.0 mg/kg/injection, schedule: Q04DX003 (ip), vehicle: saline with Tween-80) was 159 [survivor count not shown], 195 [survivor count not shown], 216 % of control [survivor count not shown]. For the same molecule, the T/C (dose: 9.0 mg/kg/injection, schedule: Q04DX003 (ip), vehicle: saline with Tween-80) was 160 % of control [survivor count not shown] and the T/C (dose: 12.0 mg/kg/injection, schedule: Q04DX003 (ip), vehicle: saline with Tween-80) was 88 % of control [survivor count not shown].
For `Cc1cc(C)cc(CN(CCCl)CCCl)c1`, the T/C [2] was 179 % of control [survivor count not shown], the T/C [3] was 166 % of control [survivor count not shown] and the T/C [4] was 179 % of control [survivor count not shown]. The T/C (dose: 16.5 mg/kg/injection, schedule: Q04DX003 (ip), vehicle: saline) was 178 % of control [survivor count not shown] and the T/C [5] was 86 % of control [survivor count not shown].
`CC(C)(O)C#CCN(CCCl)CCCl` was tested, and the T/C (dose: 0.38 mg/kg/injection, schedule: Q04DX003 (ip), vehicle: saline) was 118 % of control [survivor count not shown], the T/C (dose: 0.58 mg/kg/injection, schedule: Q04DX003 (ip), vehicle: saline) was 118 % of control [survivor count not shown] and the T/C (dose: 0.88 mg/kg/injection, schedule: Q04DX003 (ip), vehicle: saline with Tween-80) was 150 % of control [survivor count not shown]. The T/C (dose: 1.3 mg/kg/injection, schedule: Q04DX003 (ip), vehicle: saline with Tween-80) was 165 % of control [survivor count not shown], the T/C (dose: 2.0 mg/kg/injection, schedule: Q04DX003 (ip), vehicle: saline with Tween-80) was 200 % of control [survivor count not shown] and the T/C [1] was 204 % of control [survivor count not shown].
For `Cc1ccc(C)c(CN(CCCl)CCCl)c1`, the T/C (dose: 0.88 mg/kg/injection, schedule: Q01DX009 (ip), vehicle: saline) was 124 % of control [survivor count not shown], the T/C (dose: 1.33 mg/kg/injection, schedule: Q01DX009 (ip), vehicle: saline) was 133 % of control [survivor count not shown] and the T/C (dose: 2.0 mg/kg/injection, schedule: Q01DX009 (ip), vehicle: saline) was 156 % of control [survivor count not shown]. The T/C (dose: 2.6 mg/kg/injection, schedule: Q04DX003 (ip), vehicle: saline) was 122 % of control [survivor count not shown], the T/C (dose: 2.66 mg/kg/injection, schedule: Q01DX009 (ip), vehicle: saline) was 171 % of control [survivor count not shown] and the T/C (dose: 3.0 mg/kg/injection, schedule: Q01DX009 (ip), vehicle: saline) was 168 % of control [survivor count not shown]. For the same molecule, the T/C [2] was 161 % of control [survivor count not shown], the T/C (dose: 4.0 mg/kg/injection, schedule: Q04DX003 (ip), vehicle: saline) was 127 % of control [survivor count not shown] and the T/C [3] was 178 % of control [survivor count not shown]. The T/C (dose: 6.0 mg/kg/injection, schedule: Q04DX003 (ip), vehicle: saline) was 131 % of control [survivor count not shown], the T/C (dose: 6.25 mg/kg/injection, schedule: Q04DX003 (ip), vehicle: saline) was 136 % of control [survivor count not shown] and the T/C [4] was 196 % of control [survivor count not shown]. The T/C (dose: 9.0 mg/kg/injection, schedule: Q04DX003 (ip), vehicle: saline) was 131 % of control [survivor count not shown], the T/C (dose: 12.5 mg/kg/injection, schedule: Q04DX003 (ip), vehicle: saline) was 154 % of control [survivor count not shown] and the T/C [5] was 163 % of control [survivor count not shown].
In the case of `Cc1cc2nc(CN(CCCl)CCCl)[nH]c2cc1C`, the T/C (dose: 16.5 mg/kg/injection, schedule: Q04DX003 (ip), vehicle: saline with Tween-80) is reported as 179 % of control [survivor count not shown], the T/C (dose: 25.0 mg/kg/injection, schedule: Q04DX003 (ip), vehicle: saline with Tween-80) is reported as 229 % of control [survivor count not shown] and the T/C (dose: 37.5 mg/kg/injection, schedule: Q04DX003 (ip), vehicle: saline with Tween-80) is reported as 162 % of control [survivor count not shown].
